PubChem BioAssay AID1224826 | NIAID | 2016
The whole screen tested about 17,000 reagents; below is a random part of them. About 1,110 of them (6.6%) were called active. 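Active means lowered or raised reporter signal; replicate intensities are raw and not normalised per plate.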 Unmarked entries are inactive. Further read-outs or replicates are left out here. No sequences are given here.

Assay: 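Regulators of Tlr4 signalling leading to Tnf-alpha expression in macrophages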 (primary screen)
System: RAW264.7 G9 macrophages from mouse bearing reporters for p65 (GFP) and the Tnf promoter (mCherry)
Reagents: siRNA pool against mouse genes, 100 nM
Timing: 16 h of LPS stimulation, after 2 days of siRNA transfection
Conditions: bacterial lipopolysaccharide (Salmonella minnesota R595), 10 ng/ml
Measured: 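Imaged Tnf reporter mCherry in nuclei, minus background, normalised per plate to the median and expressed as robust z-scores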
Reading the numbers: Tnf reporter robust z-score: higher = stronger Tnf promoter reporter signal after LPS
Hit rule: 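a well counts as active at a score of -1.3 or below (Tlr4 knock-down control median) or above 3 (raised signal); controls and wells holding fewer than 50 cells are excluded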
Calls: active = Tnf reporter clearly lowered or raised; inactive = no clear change in Tnf reporter

With knock-down of Atg10, the record shows Tnf reporter robust z-score 0.13; fewer than 50 cells in well enough cells in well.
Nr2f1 scored Tnf reporter robust z-score -0.54; fewer than 50 cells in well enough cells in well.
Gm9725 showed Tnf reporter robust z-score 1.09; fewer than 50 cells in well enough cells in well.
Against Tmem168 the deposit lists Tnf reporter robust z-score -0.02; fewer than 50 cells in well enough cells in well.
Against Trrap the deposit lists Tnf reporter robust z-score 0.86; fewer than 50 cells in well enough cells in well.
Ssh3 scored Tnf reporter robust z-score -0.06; fewer than 50 cells in well enough cells in well.
Silencing of Pigp gave: Tnf reporter robust z-score -0.74; fewer than 50 cells in well enough cells in well.
For 4932435O22Rik, the values are fewer than 50 cells in well fewer than 50 cells per well; well left out of calls.
After knock-down of Snx12, the screen gave fewer than 50 cells in well fewer than 50 cells per well; well left out of calls.
Depletion of Cox6b1 resulted in: Tnf reporter robust z-score 2.27; fewer than 50 cells in well enough cells in well.
After knock-down of Snapc1, the screen gave Tnf reporter robust z-score -0.27; fewer than 50 cells in well enough cells in well.
Stmn4 scored Tnf reporter robust z-score 2.61; fewer than 50 cells in well enough cells in well.
Silencing of Krt19 resulted in: Tnf reporter robust z-score -0.19; fewer than 50 cells in well enough cells in well.
Ubp1 gave Tnf reporter robust z-score 0.92; fewer than 50 cells in well enough cells in well.
For Ccdc25, the entry reads fewer than 50 cells in well fewer than 50 cells per well; well left out of calls.
Hgsnat scored Tnf reporter robust z-score 3.54 (active); fewer than 50 cells in well enough cells in well.
After knock-down of Tpm2, the screen gave Tnf reporter robust z-score 0.54; fewer than 50 cells in well enough cells in well.
Rxylt1 scored Tnf reporter robust z-score -0.19; fewer than 50 cells in well enough cells in well.
With knock-down of Slc26a8 the results were Tnf reporter robust z-score 0.41; fewer than 50 cells in well enough cells in well.
Depletion of Fam187b gave: Tnf reporter robust z-score -0.73; fewer than 50 cells in well enough cells in well.
After knock-down of Gart, the record shows Tnf reporter robust z-score 0.39; fewer than 50 cells in well enough cells in well.
